Measurements: publication PMC12440877
Results are given in words; binding and its absence hold for the method and conditions named. In cells and extracts the contact can be indirect. Some results given as binding are weak or reduced against the parent protein; the word gives no strength.

Target: T1, Interferon-induced transmembrane protein 1 (IFITM1) (mouse (endogenous in NIH-3T3)) (UniProt Q9D103)
T1 sequence: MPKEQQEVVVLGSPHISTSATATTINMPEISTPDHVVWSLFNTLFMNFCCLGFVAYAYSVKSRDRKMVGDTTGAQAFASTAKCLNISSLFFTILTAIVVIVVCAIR
Assay: co-IP; NIH-3T3 lysate; anti-IFITM1 antibody or IgG on magnetic beads; eluate analysed by SDS-PAGE and blot for CBR4

- binding: binds
B1: CBR4 (protein, UniProt Q91VT4 1-236)
chain: MDKVCAVFGGSRGIGRAVAQLMAQKGYRLAIVSRNLEVAKVTAGELGGNHLAFRCDVAKEQDVQSTFQEMEKHLGPVNFLVNAAGINRDSLLVRTKTEDMISQLHTNLLGSMLTCKAAMKTMIQQGGSIVNVGSIIGLKGNVGQSAYSATKGGLVGFSRSLAKEVARKKIRVNVVAPGFIRTDMTRHLKEEHFKKNIPLGRFGETLEVAHAVVFLLESPYITGHVLIVDGGLQLTV
